Measured data: PubChem BioAssay AID1259308 (NCATS, 2017)
Here is an unselected part of about 59,000 reagents. About 1,510 of them (2.6%) were called active. 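Calls use total luciferase alone and ignore viability, so some active siRNAs may act by altering cell number.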 Reagents against one gene are numbered here.

- Screen: 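Knock-downs that increase output of a recombinant reporter protein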 (primary screen)
- System: human HEK293 embryonic kidney cells stably expressing firefly luciferase (HEK-CMV-Luc2-Hygro)
- Reagents: single siRNA against human genes, 0.8 pmol siRNA per well
- Time to read-out: 72 h
- Measured: 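Luciferase light (ONE-Glo) measured on one replicate plate set and viability (CellTiter-Glo) on the other, scaled to a negative control siRNA, with robust z-scores and luciferase per cell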
- Reading the numbers: total luciferase, z-score and total luciferase, % of control: higher = more reporter protein produced; luciferase per cell, z-score: higher = more reporter output per viable cell; viable cells, % of control: higher = more viable cells
- Active means: 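An siRNA counts as active if its total luciferase robust z-score exceeds 3; genes with two or more such siRNAs out of three were retested with fresh siRNAs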
- Calls: active = raised luciferase; inactive = no rise

no.	gene	siRNA no.	total luciferase, z-score	total luciferase, % of control	luciferase per cell, z-score	viable cells, % of control	Outcome
1	ISOC2	1	-0.913	63.7	0.0811	69.7	inactive
2	ISOC2	2	1.07	103	1.11	86.1	inactive
3	ISOC2	3	-1.95	43	-1.03	63.1	inactive
4	PURA	1	0.142	84.7	-0.3	102	inactive
5	PURA	2	0.0472	82.8	0.0595	91.1	inactive
6	PURA	3	0.59	93.6	2.26	57.8	inactive
7	MAPK1	1	-0.0723	80.4	0.365	81.7	inactive
8	MAPK1	2	-2.72	27.9	-2.85	66	inactive
9	MAPK1	3	-0.588	70.2	-1.28	110	inactive
10	MIS18A	1	-0.205	77.8	-0.334	94.9	inactive
11	MIS18A	2	-0.566	70.6	0.142	76	inactive
12	MIS18A	3	-0.995	62.1	-0.856	86.9	inactive
13	PHF10	1	-1.55	51	-0.858	71.5	inactive
14	PHF10	2	0.962	101	0.566	97.3	inactive
15	PHF10	3	0.0163	82.2	-0.267	98.5	inactive
16	ATOSB	1	-0.224	77.4	-0.376	95.5	inactive
17	ATOSB	2	0.29	87.6	0.426	87.6	inactive
18	ATOSB	3	0.472	91.3	0.946	79.5	inactive
19	FAM241A	1	0.113	84.1	0.0844	91.9	inactive
20	FAM241A	2	-1.09	60.2	-0.694	80.8	inactive
21	FAM241A	3	-0.242	77.1	-0.153	89.7	inactive
22	NFIX	1	-0.247	77	-0.695	103	inactive
23	NFIX	2	-0.757	66.8	-0.835	93	inactive
24	NFIX	3	0.528	92.4	0.409	92.7	inactive

Reformatted: 3 of the entries above.
gene | siRNA no. | total luciferase, z-score | total luciferase, % of control | luciferase per cell, z-score | viable cells, % of control | Outcome
MIS18A | 3 | -0.995 | 62.1 | -0.856 | 86.9 | inactive
PHF10 | 1 | -1.55 | 51 | -0.858 | 71.5 | inactive
PHF10 | 2 | 0.962 | 101 | 0.566 | 97.3 | inactive

The results go on.
no.	gene	siRNA no.	total luciferase, z-score	total luciferase, % of control	luciferase per cell, z-score	viable cells, % of control	Outcome
25	SPX	1	1.08	103	1.52	77.3	inactive
26	SPX	2	-0.224	77.4	0.126	83.7	inactive
27	SPX	3	0.607	94	0.785	85.4	inactive
28	KRT27	1	0.109	84	1.01	71.9	inactive
29	KRT27	2	0.371	89.3	0.499	87.5	inactive
30	KRT27	3	0.0868	83.6	0.271	87	inactive
31	MIR3976HG	1	-1.11	59.8	-1.08	88.7	inactive
32	MIR3976HG	2	0.0174	82.2	0.369	83.4	inactive
33	MIR3976HG	3	-1.36	54.8	-1.73	96.8	inactive
34	PACRGL	1	-1.27	56.7	0.254	59.2	inactive
35	PACRGL	2	0.345	88.8	0.348	90.5	inactive
36	PACRGL	3	-0.396	74	0.473	73	inactive
37	KCNB2	1	0.327	88.4	0.532	85.9	inactive
38	KCNB2	2	-0.223	77.5	-0.343	94.7	inactive
39	KCNB2	3	-0.288	76.2	-0.75	104	inactive
